# Test results from patent publication US9271963B2, “Selective inhibitors of human corticosteroid synthases” (UNIVERSITAT DES SAARLANDES, priority 2005, dated 2016).
# By UniProt entry, the sequences of proteins in these tests, tags left out. Where a name states a change or a piece, a line headed by the entry shows the natural chain unless it says otherwise.
# UniProt P11511: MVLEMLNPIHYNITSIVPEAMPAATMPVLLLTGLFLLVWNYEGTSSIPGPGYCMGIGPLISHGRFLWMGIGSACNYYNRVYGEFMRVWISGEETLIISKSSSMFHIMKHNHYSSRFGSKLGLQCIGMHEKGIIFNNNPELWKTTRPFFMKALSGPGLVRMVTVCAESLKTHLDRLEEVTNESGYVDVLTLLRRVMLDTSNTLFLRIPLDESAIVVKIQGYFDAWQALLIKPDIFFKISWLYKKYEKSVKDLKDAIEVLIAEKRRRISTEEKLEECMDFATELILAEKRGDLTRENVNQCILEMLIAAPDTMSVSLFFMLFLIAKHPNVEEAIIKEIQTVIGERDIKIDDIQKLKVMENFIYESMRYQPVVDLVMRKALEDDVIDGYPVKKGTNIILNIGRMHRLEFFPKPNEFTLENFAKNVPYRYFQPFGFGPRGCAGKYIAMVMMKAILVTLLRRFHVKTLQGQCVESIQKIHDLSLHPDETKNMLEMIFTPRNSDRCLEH
# Biological target: human placental CYP19 (Homo sapiens (Human), UniProt P11511)
# Assay: CYP19 (aromatase) inhibition, human placental microsomes
# Assay type: biochemical
# Conditions: Table 1, androstenedione 2.5 μM
smiles,measurement,value
"c1ccc2cc(-n3ccnc3)ccc2c1 [Compound 23, 1-(2-Naphthyl)-1H-imidazole]",IC50,2.82 µM
